Our source for the binding values is article PMC7441008.

The chains behind the UniProt entries cited, without tags or fusion partners.
UniProt P42229: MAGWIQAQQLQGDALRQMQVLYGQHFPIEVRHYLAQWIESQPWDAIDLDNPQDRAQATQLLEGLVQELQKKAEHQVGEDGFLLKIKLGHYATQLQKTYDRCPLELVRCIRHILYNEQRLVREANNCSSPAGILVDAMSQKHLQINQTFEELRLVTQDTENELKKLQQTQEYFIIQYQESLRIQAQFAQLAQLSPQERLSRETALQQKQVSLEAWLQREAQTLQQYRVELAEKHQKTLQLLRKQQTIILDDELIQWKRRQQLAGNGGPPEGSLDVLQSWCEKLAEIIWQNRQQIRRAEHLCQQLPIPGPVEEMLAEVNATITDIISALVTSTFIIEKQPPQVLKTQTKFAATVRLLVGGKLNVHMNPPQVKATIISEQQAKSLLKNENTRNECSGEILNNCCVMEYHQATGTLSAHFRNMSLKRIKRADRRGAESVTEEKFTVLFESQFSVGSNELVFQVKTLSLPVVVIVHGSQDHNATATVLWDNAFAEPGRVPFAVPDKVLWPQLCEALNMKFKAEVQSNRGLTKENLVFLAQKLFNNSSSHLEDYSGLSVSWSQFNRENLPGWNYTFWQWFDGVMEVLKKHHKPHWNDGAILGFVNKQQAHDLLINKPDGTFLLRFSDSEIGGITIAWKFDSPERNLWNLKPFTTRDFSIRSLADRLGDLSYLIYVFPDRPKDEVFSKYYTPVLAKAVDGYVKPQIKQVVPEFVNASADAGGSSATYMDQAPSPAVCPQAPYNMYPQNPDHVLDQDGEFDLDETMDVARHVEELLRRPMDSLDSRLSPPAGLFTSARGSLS
UniProt P51692: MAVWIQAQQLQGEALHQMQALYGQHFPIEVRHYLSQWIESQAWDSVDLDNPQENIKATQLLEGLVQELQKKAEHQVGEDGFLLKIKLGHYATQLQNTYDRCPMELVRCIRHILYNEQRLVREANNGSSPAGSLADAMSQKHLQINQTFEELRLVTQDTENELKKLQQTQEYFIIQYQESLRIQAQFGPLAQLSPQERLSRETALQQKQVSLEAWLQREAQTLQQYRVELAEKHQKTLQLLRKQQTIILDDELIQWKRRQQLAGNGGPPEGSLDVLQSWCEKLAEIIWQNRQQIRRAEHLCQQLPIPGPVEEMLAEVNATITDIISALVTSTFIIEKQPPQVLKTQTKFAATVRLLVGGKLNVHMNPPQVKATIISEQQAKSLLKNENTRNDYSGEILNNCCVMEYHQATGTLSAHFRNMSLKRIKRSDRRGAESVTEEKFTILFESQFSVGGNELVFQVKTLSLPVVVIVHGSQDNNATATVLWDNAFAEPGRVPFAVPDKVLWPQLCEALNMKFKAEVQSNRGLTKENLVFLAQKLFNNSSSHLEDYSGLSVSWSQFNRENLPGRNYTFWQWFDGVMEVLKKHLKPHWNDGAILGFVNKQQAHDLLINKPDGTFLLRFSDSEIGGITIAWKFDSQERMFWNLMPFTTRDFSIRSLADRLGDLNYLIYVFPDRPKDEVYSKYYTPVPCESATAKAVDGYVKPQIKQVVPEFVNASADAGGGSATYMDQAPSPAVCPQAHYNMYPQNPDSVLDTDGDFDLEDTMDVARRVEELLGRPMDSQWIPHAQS

The target of this assay is T1, Myc-tagged STAP-1 (signal-transducing adapter protein-1) (UniProt Q9ULZ2).
T1 sequence: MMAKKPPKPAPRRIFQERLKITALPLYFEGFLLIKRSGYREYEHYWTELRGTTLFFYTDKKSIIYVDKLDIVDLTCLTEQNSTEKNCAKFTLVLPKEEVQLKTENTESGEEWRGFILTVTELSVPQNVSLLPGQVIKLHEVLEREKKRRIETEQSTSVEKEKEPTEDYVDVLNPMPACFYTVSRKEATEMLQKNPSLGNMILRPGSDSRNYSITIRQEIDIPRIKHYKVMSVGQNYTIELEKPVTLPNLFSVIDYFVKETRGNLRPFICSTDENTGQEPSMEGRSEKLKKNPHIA
The assay can be described thus: co-IP; 293T cells co-expressing Myc-tagged STAP-1 and the partner; lysis in 50 mM Tris-HCl pH 7.6, 0.15 M NaCl, 1% Nonidet P-40; immunoprecipitated with anti-Myc antibody, blotted for the partner.

These are yes or no findings as the source states them, for the method shown. Binding seen in cells or lysates may run through a third protein. Some binding calls cover weakened binding; strength is not graded here. Sequences can lack the tags named with a protein.

As to STAT5a (from UniProt P42229 1-794), the binding result is listed as “binds”.
Then STAT5b (from UniProt P51692 1-787), with “binds”.
